The results in this text go back to US20060281675A1.

The chains behind the UniProt entries cited, without tags or fusion partners. Where a name states a change or a piece, a line headed by the entry shows the natural chain unless it says otherwise.
UniProt P01242: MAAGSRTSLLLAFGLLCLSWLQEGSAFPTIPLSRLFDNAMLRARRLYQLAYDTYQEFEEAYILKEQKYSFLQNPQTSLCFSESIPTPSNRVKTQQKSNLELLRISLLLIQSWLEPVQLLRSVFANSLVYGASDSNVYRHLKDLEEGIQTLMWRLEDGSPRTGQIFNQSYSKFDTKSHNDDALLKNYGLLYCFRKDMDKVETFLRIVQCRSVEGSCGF

Experiment [1] deals with T1, prolactin receptor in ovine hepatic microsomal membranes (ovine) (UniProt O46561).
T1 sequence (looked up): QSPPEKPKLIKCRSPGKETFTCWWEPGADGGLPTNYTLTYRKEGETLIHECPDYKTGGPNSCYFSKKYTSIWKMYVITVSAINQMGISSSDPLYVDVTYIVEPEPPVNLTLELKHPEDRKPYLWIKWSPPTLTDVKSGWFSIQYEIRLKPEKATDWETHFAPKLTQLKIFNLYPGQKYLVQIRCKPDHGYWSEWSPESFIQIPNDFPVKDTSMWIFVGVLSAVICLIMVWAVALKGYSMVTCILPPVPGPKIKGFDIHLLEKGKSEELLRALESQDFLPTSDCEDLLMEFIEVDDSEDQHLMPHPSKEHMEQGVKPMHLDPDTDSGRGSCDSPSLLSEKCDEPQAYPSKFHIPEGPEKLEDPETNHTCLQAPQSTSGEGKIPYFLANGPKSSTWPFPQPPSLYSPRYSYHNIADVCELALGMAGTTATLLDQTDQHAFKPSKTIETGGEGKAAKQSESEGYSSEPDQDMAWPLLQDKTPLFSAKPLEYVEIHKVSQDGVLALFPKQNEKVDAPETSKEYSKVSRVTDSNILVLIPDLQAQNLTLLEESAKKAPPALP
Kind of experiment: competitive radioreceptor assay, ovine hepatic microsomal membranes.

Experiment [2] addresses T1, prolactin receptor in ovine hepatic microsomal membranes (ovine). Kind of experiment: competition with 125I-rhGH, ovine hepatic microsomal membranes.

Results are given in words; binding and its absence hold for the method and conditions named. Some binding calls cover weakened binding; strength is not graded here.

Turning to “22 kDa hGH-V (recombinant human 22 kDa placental growth hormone) (from UniProt P01242 27-217) (ligand)”, the binding entry in experiment [1] and in experiment [2] was “binds” in each case.

B1: recombinant bovine growth hormone (ligand, UniProt P01246 27-217, looked up)
chain: AFPAMSLSGLFANAVLRAQHLHQLAADTFKEFERTYIPEGQRYSIQNTQVAFCFSETIPAPTGKNEAQQKSDLELLRISLLLIQSWLGPLQFLSRVFTNSLVFGTSDRVYEKLKDLEEGILALMRELEDGTPRAGQILKQTYDKFDTNMRSDDALLKNYGLLSCFRKDLHKTETYLRVMKCRRFGEASCAF
modifications: 125I label (lactoperoxidase method) where used as the radioligand
For the molecule B1, in experiment [2], the binding entry is given as “binds”.
